These are yes or no findings as the source states them, for the method shown. In cells and extracts the contact can be indirect. A result given as binding can be weak or reduced; the word gives no strength. For some assays here: Sequences can lack the tags named with a protein. Blank lines part the entries; values can stand above or below the molecule they belong to.
Assays:
[1] = biological target: CD44 variant 6 isoform (human (endogenous in A818.4 and Capan1)) (UniProt P16070); test: co-IP; endogenous proteins in cell lysates (A818.4; Figure 6(d) also Capan1; wt, CD44v6kd or Tspan8kd cells); 500 ug lysate, HEPES buffer, 1% Lubrol or 1% TritonX-100; antibody 1h 4°C, ProteinG-Sepharose 1h; Western blot
[2] = biological target: T1, Tspan8 (human (endogenous in A818.4 and Capan1)) (UniProt P19075); test: co-IP; endogenous proteins in TEX (exosome) lysates of A818.4 (wt, CD44v6kd or Tspan8kd); 100 ug lysate, HEPES buffer, 1% Lubrol or 1% TritonX-100; antibody 1h 4°C, ProteinG-Sepharose 1h; Western blot
T1 sequence: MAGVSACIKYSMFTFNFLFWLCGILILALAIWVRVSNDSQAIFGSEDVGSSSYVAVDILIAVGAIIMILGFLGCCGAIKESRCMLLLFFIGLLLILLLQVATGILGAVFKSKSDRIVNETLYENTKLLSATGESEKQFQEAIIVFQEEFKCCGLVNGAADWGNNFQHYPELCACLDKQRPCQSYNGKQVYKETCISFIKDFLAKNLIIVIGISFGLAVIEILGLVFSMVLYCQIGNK

By UniProt entry, the sequences of proteins in these tests, tags left out. Where a name states a change or a piece, a line headed by the entry shows the natural chain unless it says otherwise. Residues count along the entry.
UniProt P16070: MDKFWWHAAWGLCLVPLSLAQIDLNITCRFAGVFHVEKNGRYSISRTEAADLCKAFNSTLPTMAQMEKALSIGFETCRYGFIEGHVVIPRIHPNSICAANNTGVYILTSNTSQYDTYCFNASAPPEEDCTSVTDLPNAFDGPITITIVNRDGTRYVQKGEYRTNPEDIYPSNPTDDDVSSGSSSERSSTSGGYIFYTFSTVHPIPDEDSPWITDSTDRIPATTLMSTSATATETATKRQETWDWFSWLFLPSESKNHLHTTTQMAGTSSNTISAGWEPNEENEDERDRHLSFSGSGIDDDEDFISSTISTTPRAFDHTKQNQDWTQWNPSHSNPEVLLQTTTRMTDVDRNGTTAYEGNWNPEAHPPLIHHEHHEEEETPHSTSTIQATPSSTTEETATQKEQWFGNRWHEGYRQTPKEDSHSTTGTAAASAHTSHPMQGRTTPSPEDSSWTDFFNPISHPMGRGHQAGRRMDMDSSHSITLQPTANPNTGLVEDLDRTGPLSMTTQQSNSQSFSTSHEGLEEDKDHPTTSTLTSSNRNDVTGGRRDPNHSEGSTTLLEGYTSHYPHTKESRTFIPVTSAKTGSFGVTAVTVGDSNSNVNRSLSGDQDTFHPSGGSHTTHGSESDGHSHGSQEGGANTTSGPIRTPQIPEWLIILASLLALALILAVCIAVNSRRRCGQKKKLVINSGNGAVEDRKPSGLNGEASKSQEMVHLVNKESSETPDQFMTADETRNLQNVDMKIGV
UniProt P54764, residues 20-986: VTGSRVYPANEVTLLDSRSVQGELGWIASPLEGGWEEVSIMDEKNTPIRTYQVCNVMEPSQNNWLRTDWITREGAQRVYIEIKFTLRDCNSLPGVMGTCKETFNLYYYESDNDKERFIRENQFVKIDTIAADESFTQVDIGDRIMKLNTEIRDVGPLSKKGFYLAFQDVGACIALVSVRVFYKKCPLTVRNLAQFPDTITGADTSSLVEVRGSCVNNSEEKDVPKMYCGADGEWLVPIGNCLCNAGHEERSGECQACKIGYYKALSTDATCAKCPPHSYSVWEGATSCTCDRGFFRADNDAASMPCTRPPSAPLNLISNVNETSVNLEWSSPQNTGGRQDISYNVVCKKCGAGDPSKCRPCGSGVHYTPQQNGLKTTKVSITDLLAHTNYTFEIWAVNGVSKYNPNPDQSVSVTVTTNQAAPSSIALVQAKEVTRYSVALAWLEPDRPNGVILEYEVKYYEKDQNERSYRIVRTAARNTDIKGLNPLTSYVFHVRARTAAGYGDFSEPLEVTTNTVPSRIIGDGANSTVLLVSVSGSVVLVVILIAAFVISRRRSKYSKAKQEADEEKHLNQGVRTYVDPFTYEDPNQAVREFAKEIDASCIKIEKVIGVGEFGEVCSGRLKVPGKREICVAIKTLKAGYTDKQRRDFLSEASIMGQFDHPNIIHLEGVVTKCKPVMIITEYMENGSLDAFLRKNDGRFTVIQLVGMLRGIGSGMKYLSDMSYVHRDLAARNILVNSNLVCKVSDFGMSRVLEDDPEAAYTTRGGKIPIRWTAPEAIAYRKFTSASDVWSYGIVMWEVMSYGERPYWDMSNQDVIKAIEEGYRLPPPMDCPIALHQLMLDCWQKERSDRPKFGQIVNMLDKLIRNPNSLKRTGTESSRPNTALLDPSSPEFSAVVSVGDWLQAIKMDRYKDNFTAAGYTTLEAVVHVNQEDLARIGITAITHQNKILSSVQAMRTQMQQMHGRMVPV
UniProt Q9H9S0: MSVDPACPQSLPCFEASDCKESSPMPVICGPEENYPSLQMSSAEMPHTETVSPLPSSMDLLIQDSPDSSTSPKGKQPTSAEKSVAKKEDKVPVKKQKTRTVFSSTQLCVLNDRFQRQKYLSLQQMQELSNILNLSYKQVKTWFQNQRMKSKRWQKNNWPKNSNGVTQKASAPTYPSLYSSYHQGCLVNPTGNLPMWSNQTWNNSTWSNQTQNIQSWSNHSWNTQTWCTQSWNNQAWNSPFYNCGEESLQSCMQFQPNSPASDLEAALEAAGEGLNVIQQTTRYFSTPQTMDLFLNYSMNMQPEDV
UniProt P08581, residues 25-1390: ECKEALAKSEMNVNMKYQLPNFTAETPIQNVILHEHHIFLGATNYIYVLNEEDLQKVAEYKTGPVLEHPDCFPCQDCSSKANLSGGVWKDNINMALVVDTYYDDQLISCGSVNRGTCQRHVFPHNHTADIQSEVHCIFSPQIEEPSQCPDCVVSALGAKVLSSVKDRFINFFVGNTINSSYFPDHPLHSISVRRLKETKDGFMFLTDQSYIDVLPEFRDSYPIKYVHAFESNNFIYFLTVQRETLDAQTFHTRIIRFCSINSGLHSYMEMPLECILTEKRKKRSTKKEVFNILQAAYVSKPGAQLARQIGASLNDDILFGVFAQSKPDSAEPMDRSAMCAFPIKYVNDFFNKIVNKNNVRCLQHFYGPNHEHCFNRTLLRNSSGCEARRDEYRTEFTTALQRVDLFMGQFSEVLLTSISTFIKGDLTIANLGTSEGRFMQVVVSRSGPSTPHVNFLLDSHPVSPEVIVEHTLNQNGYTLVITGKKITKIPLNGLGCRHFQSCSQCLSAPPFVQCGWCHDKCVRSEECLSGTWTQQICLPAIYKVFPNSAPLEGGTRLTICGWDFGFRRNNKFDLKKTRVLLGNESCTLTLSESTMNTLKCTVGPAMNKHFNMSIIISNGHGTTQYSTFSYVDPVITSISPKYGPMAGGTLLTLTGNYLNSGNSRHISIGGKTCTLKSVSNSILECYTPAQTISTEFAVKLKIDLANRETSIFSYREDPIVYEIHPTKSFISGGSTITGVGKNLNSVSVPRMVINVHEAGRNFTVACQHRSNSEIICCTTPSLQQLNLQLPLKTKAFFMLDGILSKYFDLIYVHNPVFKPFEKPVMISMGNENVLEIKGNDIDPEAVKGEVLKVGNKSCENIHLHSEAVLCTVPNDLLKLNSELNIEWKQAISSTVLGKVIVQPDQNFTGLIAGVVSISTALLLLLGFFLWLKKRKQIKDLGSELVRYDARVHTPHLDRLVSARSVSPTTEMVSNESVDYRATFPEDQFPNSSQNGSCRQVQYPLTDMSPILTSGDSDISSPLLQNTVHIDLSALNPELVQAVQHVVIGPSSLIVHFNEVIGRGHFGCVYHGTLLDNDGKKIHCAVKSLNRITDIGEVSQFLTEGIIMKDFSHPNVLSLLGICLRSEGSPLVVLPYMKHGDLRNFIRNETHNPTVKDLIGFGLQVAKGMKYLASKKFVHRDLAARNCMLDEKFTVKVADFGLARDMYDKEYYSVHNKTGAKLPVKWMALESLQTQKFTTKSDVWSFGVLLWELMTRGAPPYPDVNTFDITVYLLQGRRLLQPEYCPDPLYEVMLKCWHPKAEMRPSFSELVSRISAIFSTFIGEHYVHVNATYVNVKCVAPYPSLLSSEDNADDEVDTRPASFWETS
UniProt P46531, residues 19-2555: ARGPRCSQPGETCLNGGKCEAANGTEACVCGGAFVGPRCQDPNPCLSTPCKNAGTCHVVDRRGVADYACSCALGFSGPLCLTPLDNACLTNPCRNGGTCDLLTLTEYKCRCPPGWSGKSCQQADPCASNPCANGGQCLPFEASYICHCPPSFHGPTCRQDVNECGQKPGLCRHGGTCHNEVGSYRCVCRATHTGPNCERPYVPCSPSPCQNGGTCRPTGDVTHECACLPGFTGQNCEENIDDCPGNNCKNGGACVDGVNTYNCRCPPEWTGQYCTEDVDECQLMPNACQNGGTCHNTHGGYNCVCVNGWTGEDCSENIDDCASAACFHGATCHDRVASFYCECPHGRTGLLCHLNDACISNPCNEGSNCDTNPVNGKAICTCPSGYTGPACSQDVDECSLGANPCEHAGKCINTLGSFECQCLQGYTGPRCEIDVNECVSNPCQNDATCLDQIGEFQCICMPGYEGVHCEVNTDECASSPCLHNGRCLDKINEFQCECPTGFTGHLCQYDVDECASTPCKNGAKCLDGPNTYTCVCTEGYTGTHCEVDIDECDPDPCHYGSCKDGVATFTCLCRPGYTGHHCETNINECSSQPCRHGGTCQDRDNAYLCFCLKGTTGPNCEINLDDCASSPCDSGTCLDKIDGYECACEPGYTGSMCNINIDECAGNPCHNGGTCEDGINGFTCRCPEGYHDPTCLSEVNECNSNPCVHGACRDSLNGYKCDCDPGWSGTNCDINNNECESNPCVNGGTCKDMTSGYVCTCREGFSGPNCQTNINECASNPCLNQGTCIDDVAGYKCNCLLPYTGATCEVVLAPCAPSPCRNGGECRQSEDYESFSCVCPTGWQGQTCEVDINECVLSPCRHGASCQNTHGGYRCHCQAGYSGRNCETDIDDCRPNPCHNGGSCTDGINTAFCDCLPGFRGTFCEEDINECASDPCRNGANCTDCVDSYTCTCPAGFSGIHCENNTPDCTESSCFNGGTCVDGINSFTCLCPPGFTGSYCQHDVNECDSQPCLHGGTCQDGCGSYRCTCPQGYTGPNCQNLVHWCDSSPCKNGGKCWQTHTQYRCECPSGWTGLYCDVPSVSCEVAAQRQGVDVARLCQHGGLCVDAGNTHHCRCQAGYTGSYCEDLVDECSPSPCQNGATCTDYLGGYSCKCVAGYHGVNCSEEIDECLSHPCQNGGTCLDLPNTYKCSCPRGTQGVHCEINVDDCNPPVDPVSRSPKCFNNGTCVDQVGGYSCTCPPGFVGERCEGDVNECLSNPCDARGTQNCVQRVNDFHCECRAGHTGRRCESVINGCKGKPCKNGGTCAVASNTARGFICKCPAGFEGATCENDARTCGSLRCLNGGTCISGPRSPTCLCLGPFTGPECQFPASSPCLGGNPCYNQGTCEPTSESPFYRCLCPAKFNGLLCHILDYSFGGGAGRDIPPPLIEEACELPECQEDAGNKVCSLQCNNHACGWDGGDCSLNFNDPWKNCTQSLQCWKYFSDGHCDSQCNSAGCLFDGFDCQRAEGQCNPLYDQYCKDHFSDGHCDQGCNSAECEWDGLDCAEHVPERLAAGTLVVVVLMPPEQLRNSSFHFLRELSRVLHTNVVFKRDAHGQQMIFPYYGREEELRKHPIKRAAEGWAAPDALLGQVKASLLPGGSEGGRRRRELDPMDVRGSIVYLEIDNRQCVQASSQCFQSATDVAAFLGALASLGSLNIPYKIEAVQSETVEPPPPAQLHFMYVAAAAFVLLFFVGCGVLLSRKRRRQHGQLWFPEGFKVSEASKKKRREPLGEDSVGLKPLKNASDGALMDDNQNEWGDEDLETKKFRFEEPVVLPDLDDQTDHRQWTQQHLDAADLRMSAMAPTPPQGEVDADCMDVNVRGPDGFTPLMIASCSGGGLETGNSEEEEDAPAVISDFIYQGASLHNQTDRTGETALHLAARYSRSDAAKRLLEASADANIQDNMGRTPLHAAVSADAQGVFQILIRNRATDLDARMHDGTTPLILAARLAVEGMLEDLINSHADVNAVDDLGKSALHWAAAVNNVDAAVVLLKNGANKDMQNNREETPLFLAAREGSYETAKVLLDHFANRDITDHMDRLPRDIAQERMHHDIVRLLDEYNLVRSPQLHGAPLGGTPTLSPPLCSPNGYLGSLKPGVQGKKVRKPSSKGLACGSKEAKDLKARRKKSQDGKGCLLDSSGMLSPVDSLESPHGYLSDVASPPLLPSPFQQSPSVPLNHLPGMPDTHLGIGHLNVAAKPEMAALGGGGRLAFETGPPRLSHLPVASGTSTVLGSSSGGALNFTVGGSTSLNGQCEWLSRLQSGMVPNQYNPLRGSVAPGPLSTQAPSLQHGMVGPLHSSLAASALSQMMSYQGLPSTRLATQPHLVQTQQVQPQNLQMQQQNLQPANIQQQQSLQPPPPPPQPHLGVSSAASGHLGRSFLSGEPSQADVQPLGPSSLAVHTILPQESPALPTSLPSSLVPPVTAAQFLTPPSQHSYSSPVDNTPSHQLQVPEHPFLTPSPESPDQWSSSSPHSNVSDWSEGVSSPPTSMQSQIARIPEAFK

[3] = biological target: CD104 (human (endogenous in A818.4)) (UniProt P16144); test: as above
[4] = biological target: EphA4 (human (endogenous in A818.4)) (UniProt P54764); test: as above
[5] = biological target: T2, prostaglandin F2 receptor negative regulator (human (endogenous in A818.4)) (UniProt Q9P2B2); test: as above
T2 sequence: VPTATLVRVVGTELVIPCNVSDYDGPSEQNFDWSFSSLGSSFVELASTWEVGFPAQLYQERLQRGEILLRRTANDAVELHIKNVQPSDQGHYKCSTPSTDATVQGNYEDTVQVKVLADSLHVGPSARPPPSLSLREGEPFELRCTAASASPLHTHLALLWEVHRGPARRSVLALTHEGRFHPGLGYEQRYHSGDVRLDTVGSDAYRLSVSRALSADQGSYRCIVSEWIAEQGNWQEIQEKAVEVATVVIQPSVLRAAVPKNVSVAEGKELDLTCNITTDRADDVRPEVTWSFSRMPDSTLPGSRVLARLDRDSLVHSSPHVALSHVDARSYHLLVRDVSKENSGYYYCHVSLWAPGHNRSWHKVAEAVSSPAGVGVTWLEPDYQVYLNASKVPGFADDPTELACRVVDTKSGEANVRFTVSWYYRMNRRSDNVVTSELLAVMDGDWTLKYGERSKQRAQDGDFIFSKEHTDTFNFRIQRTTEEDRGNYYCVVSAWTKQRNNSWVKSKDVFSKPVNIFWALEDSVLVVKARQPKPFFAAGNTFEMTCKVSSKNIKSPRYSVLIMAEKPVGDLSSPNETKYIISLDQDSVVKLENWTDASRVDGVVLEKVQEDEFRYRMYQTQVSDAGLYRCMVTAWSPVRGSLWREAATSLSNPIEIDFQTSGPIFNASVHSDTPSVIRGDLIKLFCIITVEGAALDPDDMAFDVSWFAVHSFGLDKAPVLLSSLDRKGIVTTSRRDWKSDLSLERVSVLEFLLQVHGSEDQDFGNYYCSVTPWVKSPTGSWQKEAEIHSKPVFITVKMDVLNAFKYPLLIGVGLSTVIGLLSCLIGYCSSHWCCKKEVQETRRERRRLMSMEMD

[6] = biological target: CD104 (human (endogenous in A818.4)) (UniProt P16144); test: co-IP; endogenous proteins in cell lysates (A818.4; Figure 6(d) also Capan1; wt, CD44v6kd or Tspan8kd cells); 500 ug lysate, HEPES buffer, 1% Lubrol or 1% TritonX-100; antibody 1h 4°C, ProteinG-Sepharose 1h; Western blot
[7] = biological target: EphA4 (human (endogenous in A818.4)) (UniProt P54764); test: as above
[8] = biological target: T2, prostaglandin F2 receptor negative regulator (human (endogenous in A818.4)); test: as above
[9] = biological target: CD44 variant 6 isoform (human (endogenous in A818.4 and Capan1)) (UniProt P16070); test: as above; remark: listed apart in the source
[10] = biological target: CD44 variant 6 isoform (human (endogenous in A818.4 and Capan1)) (UniProt P16070); test: co-IP; endogenous proteins in TEX (exosome) lysates of A818.4 (wt, CD44v6kd or Tspan8kd); 100 ug lysate, HEPES buffer, 1% Lubrol or 1% TritonX-100; antibody 1h 4°C, ProteinG-Sepharose 1h; Western blot

binding [1]: binds weakly
Molecule: Nanog (from UniProt Q9H9S0 1-305)

binding [2]: binds | binding [3]: binds | binding [4]: binds | binding [5]: binds | binding [6]: binds | binding [7]: binds | binding [8]: binds
Molecule: CD44 variant 6 isoform (from UniProt P16070)

binding [1]: binds
Molecule: MET (from UniProt P08581 25-1390) (receptor)

binding [1]: binds
Molecule: NOTCH (from UniProt P46531 19-2555)

binding [1]: binds weakly
Molecule: β-catenin (from UniProt P35222 1-781)

binding [9]: binds | binding [10]: binds
B1: Tspan8 (protein, UniProt P19075 1-237)
chain: MAGVSACIKYSMFTFNFLFWLCGILILALAIWVRVSNDSQAIFGSEDVGSSSYVAVDILIAVGAIIMILGFLGCCGAIKESRCMLLLFFIGLLLILLLQVATGILGAVFKSKSDRIVNETLYENTKLLSATGESEKQFQEAIIVFQEEFKCCGLVNGAADWGNNFQHYPELCACLDKQRPCQSYNGKQVYKETCISFIKDFLAKNLIIVIGISFGLAVIEILGLVFSMVLYCQIGNK

binding [9]: binds
B2: leucine rich repeat containing G protein-coupled receptor 5 (receptor, UniProt O75473 22-907)
chain: GSSPRSGVLLRGCPTHCHCEPDGRMLLRVDCSDLGLSELPSNLSVFTSYLDLSMNNISQLLPNPLPSLRFLEELRLAGNALTYIPKGAFTGLYSLKVLMLQNNQLRHVPTEALQNLRSLQSLRLDANHISYVPPSCFSGLHSLRHLWLDDNALTEIPVQAFRSLSALQAMTLALNKIHHIPDYAFGNLSSLVVLHLHNNRIHSLGKKCFDGLHSLETLDLNYNNLDEFPTAIRTLSNLKELGFHSNNIRSIPEKAFVGNPSLITIHFYDNPIQFVGRSAFQHLPELRTLTLNGASQITEFPDLTGTANLESLTLTGAQISSLPQTVCNQLPNLQVLDLSYNLLEDLPSFSVCQKLQKIDLRHNEIYEIKVDTFQQLLSLRSLNLAWNKIAIIHPNAFSTLPSLIKLDLSSNLLSSFPITGLHGLTHLKLTGNHALQSLISSENFPELKVIEMPYAYQCCAFGVCENAYKISNQWNKGDNSSMDDLHKKDAGMFQAQDERDLEDFLLDFEEDLKALHSVQCSPSPGPFKPCEHLLDGWLIRIGVWTIAVLALTCNALVTSTVFRSPLYISPIKLLIGVIAAVNMLTGVSSAVLAGVDAFTFGSFARHGAWWENGVGCHVIGFLSIFASESSVFLLTLAALERGFSVKYSAKFETKAPFSSLKVIILLCALLALTMAAVPLLGGSKYGASPLCLPLPFGEPSTMGYMVALILLNSLCFLMMTIAYTKLYCNLDKGDLENIWDCSMVKHIALLLFTNCILNCPVAFLSFSSLINLTFISPEVIKFILLVVVPLPACLNPLLYILFNPHFKEDLVSLRKQTYVWTRSKHPSLMSINSDDVEKQSCDSTQALVTFTSSSITYDLPPSSVPSPAYPVTESCHLSSVAFVPCL

Reference: PMC6702834
